Laboratory results from US9926581B2, “Fagopyritol synthase genes and uses thereof” (Cornell Research Foundation, Inc., priority 2002, dated 2018).

Assays:
buckwheat embryos = assay: Soluble carbohydrates in buckwheat embryos from seeds matured at 15, 22 or 30° C.; format: in vivo, Fagopyrum esculentum Moench; conditions: for Soluble carbohydrates in buckwheat embryos: harvested at 28 DAP and dried 2 weeks at 12% RH, mean ± SE
buckwheat explants = assay: Buckwheat explant feeding with 100 mM cyclitol in 1% sucrose for 5 days, soluble carbohydrates in embryos and leaf disks; format: in vivo, Fagopyrum esculentum; conditions: replicate values

## OCC1O[C@H](OCC2O[C@@H](O[C@H]3C(O)C(O)[C@H](O)C(O)[C@@H]3O)C(O)[C@H](O)[C@H]2O)C(O)[C@H](O)[C@H]1O (stereo partly drawn) [Fagopyritol A2, α-D-galactopyranosyl-(1→6)-α-D-galactopyranosyl-(1→3)-1D-chiro-inositol]
Buckwheat embryos; after 2 weeks of drying of seeds
  content in embryos of seeds matured at 30° C. relative to 15° C.: about 4 times
Buckwheat embryos; seeds matured at 15° C.
  Soluble carbohydrates in buckwheat embryos: 3.66 ± 0.84 μg/embryo
Buckwheat embryos; seeds matured at 22° C.
  Soluble carbohydrates in buckwheat embryos: 11.12 ± 3.04 μg/embryo
Buckwheat embryos; seeds matured at 30° C.
  Soluble carbohydrates in buckwheat embryos: 15.52 ± 0.68 μg/embryo
Buckwheat explants; fed 100 mM D-chiro-inositol in 1% sucrose solution 5 days, 2 days slow drying
  Soluble carbohydrates in embryos of seeds from buckwheat explants: 6.43 μg/embryo and 4.91 μg/embryo
Buckwheat explants; fed 100 mM D-chiro-inositol in 1% sucrose solution 5 days, 4 days slow drying
  Soluble carbohydrates in embryos of seeds from buckwheat explants: 4.19 μg/embryo and 2.04 μg/embryo and 4.42 μg/embryo
Buckwheat explants; fed 100 mM D-chiro-inositol in 1% sucrose solution 5 days, 7 days slow drying
  Soluble carbohydrates in embryos of seeds from buckwheat explants: 2.57 μg/embryo and 1.19 μg/embryo and 1.33 μg/embryo
Buckwheat explants; fed 100 mM D-chiro-inositol in 1% sucrose solution, after 1 day feeding
  Soluble carbohydrates in embryos of seeds from buckwheat explants: 0 μg/embryo
Buckwheat explants; fed 100 mM D-chiro-inositol in 1% sucrose solution, after 5 days feeding
  Soluble carbohydrates in embryos of seeds from buckwheat explants: 0 μg/embryo and 10.11 μg/embryo and 1.93 μg/embryo
Buckwheat explants; fed 100 mM D-pinitol in 1% sucrose solution 5 days, 2 days slow drying
  Soluble carbohydrates in embryos of seeds from buckwheat explants: 0 μg/embryo and 9.52 μg/embryo and 6.89 μg/embryo
Buckwheat explants; fed 100 mM D-pinitol in 1% sucrose solution 5 days, 4 days slow drying
  Soluble carbohydrates in embryos of seeds from buckwheat explants: 6.18 μg/embryo and 6.64 μg/embryo and 4.73 μg/embryo
Buckwheat explants; fed 100 mM D-pinitol in 1% sucrose solution 5 days, 7 days slow drying
  Soluble carbohydrates in embryos of seeds from buckwheat explants: 1.30 μg/embryo and 0.71 μg/embryo and 2.21 μg/embryo
Buckwheat explants; fed 100 mM D-pinitol in 1% sucrose solution, after 1 day feeding
  Soluble carbohydrates in embryos of seeds from buckwheat explants: 0 μg/embryo
Buckwheat explants; fed 100 mM D-pinitol in 1% sucrose solution, after 5 days feeding
  Soluble carbohydrates in embryos of seeds from buckwheat explants: 0 μg/embryo (2×) and 4.65 μg/embryo
Buckwheat explants; fed 100 mM myo-inositol in 1% sucrose solution 5 days, 2 days slow drying
  Soluble carbohydrates in embryos of seeds from buckwheat explants: 38.72 μg/embryo and 10.89 μg/embryo
Buckwheat explants; fed 100 mM myo-inositol in 1% sucrose solution 5 days, 4 days slow drying
  Soluble carbohydrates in embryos of seeds from buckwheat explants: 11.49 μg/embryo and 4.52 μg/embryo
Buckwheat explants; fed 100 mM myo-inositol in 1% sucrose solution 5 days, 7 days slow drying
  Soluble carbohydrates in embryos of seeds from buckwheat explants: 2.54 μg/embryo and 2.64 μg/embryo
Buckwheat explants; fed 100 mM myo-inositol in 1% sucrose solution, after 1 day feeding
  Soluble carbohydrates in embryos of seeds from buckwheat explants: 0 μg/embryo
Buckwheat explants; fed 100 mM myo-inositol in 1% sucrose solution, after 5 days feeding
  Soluble carbohydrates in embryos of seeds from buckwheat explants: 2.60 μg/embryo and 0 μg/embryo
Buckwheat explants; fed 1% sucrose (without cyclitols) solution 5 days, 2 days slow drying
  Soluble carbohydrates in embryos of seeds from buckwheat explants: 0.58 μg/embryo and 12.29 μg/embryo and 8.09 μg/embryo
Buckwheat explants; fed 1% sucrose (without cyclitols) solution 5 days, 4 days slow drying
  Soluble carbohydrates in embryos of seeds from buckwheat explants: 10.60 μg/embryo and 6.87 μg/embryo
Buckwheat explants; fed 1% sucrose (without cyclitols) solution 5 days, 7 days slow drying
  Soluble carbohydrates in embryos of seeds from buckwheat explants: 7.35 μg/embryo and 6.34 μg/embryo
Buckwheat explants; fed 1% sucrose (without cyclitols) solution, after 5 days feeding
  Soluble carbohydrates in embryos of seeds from buckwheat explants: 0 μg/embryo and 8.12 μg/embryo

Where “and” joins values, the source holds several entries; their conditions need not be identical. Equal entries are not always repeated.
